Measured values reported in PubChem BioAssay.
The list shows a part of the results. Shown are side measurements of this screen, not its main read-out; they come without a call. Compounds called inactive in the main read-out are mostly missing here.

Assay: selective SMN2 exon splicing luciferase activators – cell-based, SMN2/SMN1 luciferase reporters (AID 1598)
Conditions: SMN2 vs SMN1 luciferase splicing reporter cells, at 10 µM; SMN1 luciferase ratio: measured here: SMN1 luciferase reporter average; SMN2 luciferase ratio: measured here: SMN2 luciferase reporter average, stronger effect = higher value

Compound | SMN2 luciferase ratio | SMN1 luciferase ratio
CCN(CC)CCCC(C)Nc1c2ccc(Cl)cc2nc2ccc(OC)cc12 (centres undefined) | 1.26 | 1.08
NC(=NCCCCCCN=C(N)/N=C(\N)Nc1ccc(Cl)cc1)/N=C(\N)Nc1ccc(Cl)cc1 | 0.52 | 0.87
C=CCSCC1Nc2cc(Cl)c(S(N)(=O)=O)cc2S(=O)(=O)N1 (centres undefined) | 0.88 | 0.98
NC(N)=NC(=O)c1nc(Cl)c(N)nc1N | 0.97 | 0.96
CC1(C)OC(=O)NC1=O | 1.12 | 1.03
C#C[C@]1(O)CCC2C3CCC4=CC(=O)CC[C@@H]4C3CC[C@@]21CC (some centres undefined) | 0.84 | 0.91
N[C@H](Cc1ccccc1)C(=O)O | 0.96 | 1.11
COc1c2occc2c(OC)c2c(=O)cc(C)oc12 | 0.92 | 1
NC(COCc1ccccc1)C(=O)O (centres undefined) | 0.85 | 0.85
Cc1ccc(C(C)C)cc2c(C)ccc1-2 | 0.86 | 0.85
CC(C)[N+](C)(CCOC(=O)C1c2ccccc2Oc2ccccc21)C(C)C | 0.85 | 0.98
C[C@@H]1OC(Oc2c(-c3ccc(O)c(O)c3)oc3cc(O)cc(O)c3c2=O)[C@H](O)[C@H](O)[C@H]1O (some centres undefined) | 0.93 | 0.89
Cc1c(NC(C)C)c(=O)n(-c2ccccc2)n1C | 0.86 | 0.88
Nc1ccc(S(=O)(=O)Nc2ccnn2-c2ccccc2)cc1 | 1.12 | 0.95
C[N+]1(C)C2CC(OC(=O)[C@@H](CO)c3ccccc3)CC1C1OC12 (some centres undefined) | 1.07 | 0.89
CCC(Cc1c(I)cc(I)c(N)c1I)C(=O)O (centres undefined) | 0.88 | 0.96
O=C(O)c1cc(O)ccc1O | 0.93 | 0.89

Reprinted from the listing for reference:
Compound | SMN2 luciferase ratio | SMN1 luciferase ratio
CC(C)[N+](C)(CCOC(=O)C1c2ccccc2Oc2ccccc21)C(C)C | 0.85 | 0.98
C[C@@H]1OC(Oc2c(-c3ccc(O)c(O)c3)oc3cc(O)cc(O)c3c2=O)[C@H](O)[C@H](O)[C@H]1O (some centres undefined) | 0.93 | 0.89
